Source: PubChem BioAssay AID1259405 (NCATS, 2018)
Test: 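Mouse-designed siRNAs used to find CHO productivity engineering targets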 (primary screen). Cells: Chinese hamster CHO-K1 ovary cells with stable secreted eGFP expression. Knock-down reagent: single siRNA against mouse genes, 0.8 pmol siRNA per well (2 µl of 400 nM stock). Timing: 3 days. Detection: 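Percent of the per-plate non-targeting control median for intracellular GFP per well by laser scanning cytometry and for cell viability by ATP luminescence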. Scale: GFP, % of control: higher = more GFP per well, higher productivity; viability (ATP), % of control: higher = more viable cells (more ATP). Rule for the call: 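Called active when intracellular GFP, relative to negative control, is at or above 120%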.
Here is a random part of about 50,000 reagents. Over the whole deposit, about 4,000 (8%) are marked active. 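Mouse siRNA library applied to hamster cells; one well for each siRNA.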 The numbers tell different reagents against one gene apart. No sequences are given here.

The first 5 records as a preview:
Lrriq3 #1 | GFP, % of control: 105; viability (ATP), % of control: 76.3; call: inactive
Lrriq3 #2 | GFP, % of control: 67.5; viability (ATP), % of control: 107; call: inactive
Lrriq3 #3 | GFP, % of control: 108; viability (ATP), % of control: 151; call: inactive
Rap2b #1 | GFP, % of control: 81.1; viability (ATP), % of control: 93.6; call: inactive
Rap2b #2 | GFP, % of control: 76.6; viability (ATP), % of control: 68.2; call: inactive

Results, from the start:
Lrriq3 #1 | GFP, % of control: 105; viability (ATP), % of control: 76.3; call: inactive
Lrriq3 #2 | GFP, % of control: 67.5; viability (ATP), % of control: 107; call: inactive
Lrriq3 #3 | GFP, % of control: 108; viability (ATP), % of control: 151; call: inactive
Rap2b #1 | GFP, % of control: 81.1; viability (ATP), % of control: 93.6; call: inactive
Rap2b #2 | GFP, % of control: 76.6; viability (ATP), % of control: 68.2; call: inactive
Rap2b #3 | GFP, % of control: 94.8; viability (ATP), % of control: 95.4; call: inactive
Slc12a6 #1 | GFP, % of control: 62.5; viability (ATP), % of control: 62.6; call: inactive
Slc12a6 #2 | GFP, % of control: 126; viability (ATP), % of control: 72.1; call: active
Slc12a6 #3 | GFP, % of control: 96.7; viability (ATP), % of control: 74.5; call: inactive
Pcare #1 | GFP, % of control: 39.8; viability (ATP), % of control: 46.1; call: inactive
Pcare #2 | GFP, % of control: 93.6; viability (ATP), % of control: 95.8; call: inactive
Pcare #3 | GFP, % of control: 96.6; viability (ATP), % of control: 117; call: inactive
Abcc6 #1 | GFP, % of control: 82.4; viability (ATP), % of control: 86.5; call: inactive
Abcc6 #2 | GFP, % of control: 40.2; viability (ATP), % of control: 44.4; call: inactive
Abcc6 #3 | GFP, % of control: 96.3; viability (ATP), % of control: 83; call: inactive
Psen1 #1 | GFP, % of control: 63.1; viability (ATP), % of control: 63.8; call: inactive
Psen1 #2 | GFP, % of control: 79.7; viability (ATP), % of control: 36.5; call: inactive
Psen1 #3 | GFP, % of control: 94; viability (ATP), % of control: 53.3; call: inactive
Txndc5 #1 | GFP, % of control: 32.2; viability (ATP), % of control: 42.9; call: inactive
Txndc5 #2 | GFP, % of control: 92.7; viability (ATP), % of control: 94.4; call: inactive
Txndc5 #3 | GFP, % of control: 69.2; viability (ATP), % of control: 66; call: inactive
Fem1al #1 | GFP, % of control: 55.7; viability (ATP), % of control: 56.1; call: inactive
Fem1al #2 | GFP, % of control: 62.8; viability (ATP), % of control: 41.1; call: inactive
Fem1al #3 | GFP, % of control: 63.1; viability (ATP), % of control: 64.8; call: inactive
R3hdm2 #1 | GFP, % of control: 106; viability (ATP), % of control: 85.2; call: inactive
R3hdm2 #2 | GFP, % of control: 110; viability (ATP), % of control: 69.1; call: inactive
R3hdm2 #3 | GFP, % of control: 118; viability (ATP), % of control: 92.9; call: inactive
Txnl4a #1 | GFP, % of control: 51.2; viability (ATP), % of control: 66.9; call: inactive
Txnl4a #2 | GFP, % of control: 57.5; viability (ATP), % of control: 69.3; call: inactive
Txnl4a #3 | GFP, % of control: 44.2; viability (ATP), % of control: 27.5; call: inactive
Txnl4a #4 | GFP, % of control: 66.6; viability (ATP), % of control: 48.6; call: inactive
Txnl4a #5 | GFP, % of control: 39.9; viability (ATP), % of control: 70.7; call: inactive
Txnl4a #6 | GFP, % of control: 104; viability (ATP), % of control: 102; call: inactive
Edar #1 | GFP, % of control: 93.6; viability (ATP), % of control: 94.7; call: inactive
Edar #2 | GFP, % of control: 87; viability (ATP), % of control: 71.4; call: inactive
Ccdc77 #1 | GFP, % of control: 85.3; viability (ATP), % of control: 58.6; call: inactive
Ccdc77 #2 | GFP, % of control: 70.6; viability (ATP), % of control: 84.3; call: inactive
Ccdc77 #3 | GFP, % of control: 66.7; viability (ATP), % of control: 75.7; call: inactive
Ipmk | GFP, % of control: 49.8; viability (ATP), % of control: 50.7; call: inactive
D2hgdh #1 | GFP, % of control: 54.1; viability (ATP), % of control: 79.3; call: inactive
D2hgdh #2 | GFP, % of control: 55.9; viability (ATP), % of control: 51.9; call: inactive
D2hgdh #3 | GFP, % of control: 92.6; viability (ATP), % of control: 87.2; call: inactive
